# The list shows a part of the results. Single values are uncertain, as repeats are few or missing.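 Imaging used 1,536-well plates; nuclei positive for cleaved PARP by antibody were divided by total DNA-stained nuclei to yield the apoptosis fraction. Doses for screening kept most cells viable, and cell lines differ markedly in resting and induced cleaved-PARP levels.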
# Experiments:
# Assay in all cases: cleaved PARP positive nuclei fraction relative to DMSO control; melanoma cells; higher = more apoptosis
# Settings in all cases: library dose: low library concentration; 72 h
# WM115 = system: WM115
# WM1716 = system: WM1716
# WM1745 = system: WM1745
# WM3526 = system: WM3526
# WM3619 = system: WM3619
# WM451Lu = system: WM451Lu
Compound,cleaved PARP positive nuclei fraction (WM115),cleaved PARP positive nuclei fraction (WM1716),cleaved PARP positive nuclei fraction (WM1745),cleaved PARP positive nuclei fraction (WM3526),cleaved PARP positive nuclei fraction (WM3619),cleaved PARP positive nuclei fraction (WM451Lu)
"O=C(/C=C/c1cccnc1)NCCCCC1CCN(C(=O)c2ccccc2)CC1 + C[C@]1(O)C[C@@H](c2nc(-c3ccc4ccc(-c5ccccc5)nc4c3)c3c(N)nccn32)C1 [OSI906] (first compound 0.01 µM, partner dose 0.4 µM)",105%,119%,20.9%,51.8%,119%,77%
"Cc1cc(Nc2cc(N3CCN(C)CC3)nc(Sc3ccc(NC(=O)C4CC4)cc3)n2)n[nH]1 [Tozasertib] + C[C@@H](Oc1cc(-c2cnn(C3CCNCC3)c2)cnc1N)c1c(Cl)ccc(F)c1Cl [Crizotinib] (first compound 0.006 µM, partner dose 0.2 µM)",211%,50.5%,107%,61.1%,96.7%,138%
"O=C(/C=C/c1cccnc1)NCCCCC1CCN(C(=O)c2ccccc2)CC1 + CC(C)C[C@H](NC(=O)[C@H](Cc1ccccc1)NC(=O)c1cnccn1)B(O)O [Bortezomib] (first compound 0.01 µM, partner dose 0.001 µM)",84.8%,300%,97%,23.7%,170%,24.2%
"Cc1ccc(Nc2nccc(N(C)c3ccc4c(C)n(C)nc4c3)n2)cc1S(N)(=O)=O [Pazopanib] + COc1ccc2c(c1)CCC1C2CCC2(C)C(NCCCCCCN3C(=O)C=CC3=O)CCC12 [U73122] (first compound 0.4 µM, partner dose 0.4 µM)",153%,143%,112%,80.7%,117%,37.2%
"N#CC[C@H](C1CCCC1)n1cc(-c2ncnc3[nH]ccc23)cn1 [ruxolitinib] + N#Cc1c(O)c2c(-c3ccc(-c4ccccc4O)cc3)csc2[nH]c1=O [A769662] (first compound 1 µM, partner dose 2 µM)",126%,71.4%,96.7%,45.6%,107%,35.9%
"Cc1cn(-c2cc(NC(=O)c3ccc(C)c(Nc4nccc(-c5cccnc5)n4)c3)cc(C(F)(F)F)c2)cn1 [nilotinib] + Cn1nnc2c(C(N)=O)ncn2c1=O [temozolomide] (first compound 0.2 µM, partner dose 2 µM)",89.8%,233%,114%,102%,84.5%,21.8%
"O=C(/C=C/c1cccnc1)NCCCCC1CCN(C(=O)c2ccccc2)CC1 + Oc1cc(-c2nc(-c3ccccc3)[nH]c2-c2ccncc2)ccc1Cl [L779450] (first compound 0.01 µM, partner dose 0.2 µM)",56.5%,57.3%,483%,167%,107%,133%
"O=c1[nH]nc(Sc2ncc([N+](=O)[O-])s2)n1-c1ccc2c(c1)OCCO2 + CCCS(=O)(=O)Nc1ccc(F)c(C(=O)c2c[nH]c3ncc(Cl)cc23)c1F [PLX4720] (first compound 0.2 µM, partner dose 0.08 µM)",102%,52.3%,168%,654%,93%,85%
"Cc1cc(Nc2cc(N3CCN(C)CC3)nc(Sc3ccc(NC(=O)C4CC4)cc3)n2)n[nH]1 [Tozasertib] + Cc1ccc(NC(=O)c2cccc(N(C)C)c2)cc1NC(=O)c1ccc(O)cc1 [ZM336372] (first compound 0.006 µM, partner dose 2 µM)",84.5%,142%,115%,337%,97.6%,46%
"CCCCCCCCCCCCCCCCCCOP(=O)([O-])OC1CC[N+](C)(C)CC1 [Perifosine] + C=CCn1c(=O)c2cnc(Nc3ccc(N4CCN(C)CC4)cc3)nc2n1-c1cccc(C(C)(C)O)n1 [MK1775] (first compound 0.4 µM, partner dose 0.02 µM)",45%,170%,100%,48.1%,98.2%,223%
"Cc1cc(Nc2cc(N3CCN(C)CC3)nc(Sc3ccc(NC(=O)C4CC4)cc3)n2)n[nH]1 [Tozasertib] + Cn1c(Nc2ccc(C(F)(F)F)cc2)nc2cc(Oc3ccnc(-c4ncc(C(F)(F)F)[nH]4)c3)ccc21 [CHIR265] (first compound 0.006 µM, partner dose 0.08 µM)",757%,84.5%,162%,134%,145%,57.6%
"Cc1cc(Nc2cc(N3CCN(C)CC3)nc(Sc3ccc(NC(=O)C4CC4)cc3)n2)n[nH]1 [Tozasertib] + C[C@@H]1CCN(C(=O)CC#N)C[C@@H]1N(C)c1ncnc2[nH]ccc12 [CP690550] (first compound 0.006 µM, partner dose 1 µM)",66.2%,183%,106%,115%,106%,27%
"Cc1cn(-c2cc(NC(=O)c3ccc(C)c(Nc4nccc(-c5cccnc5)n4)c3)cc(C(F)(F)F)c2)cn1 [nilotinib] + COc1cc2c(Oc3ccc4[nH]c(C)cc4c3F)ncnc2cc1OCCCN1CCCC1 [cediranib] (first compound 0.2 µM, partner dose 0.4 µM)",75.5%,108%,108%,49.1%,125%,28.6%
"COc1cc([C@@H]2c3cc4c(cc3[C@@H](O[C@@H]3O[C@@H]5CO[C@@H](C)O[C@H]5[C@H](O)[C@H]3O)[C@H]3COC(=O)[C@H]23)OCO4)cc(OC)c1O [etoposide] + C=CCn1c(=O)c2cnc(Nc3ccc(N4CCN(C)CC4)cc3)nc2n1-c1cccc(C(C)(C)O)n1 [MK1775] (first compound 0.02 µM, partner dose 0.02 µM)",110%,196%,108%,66.7%,133%,261%
"CC[C@]1(O)C[C@H]2CN(CCc3c([nH]c4ccccc34)[C@@](C(=O)OC)(c3cc4c(cc3OC)N(C=O)[C@H]3[C@@](O)(C(=O)OC)[C@H](OC(C)=O)[C@]5(CC)C=CCN6CC[C@]43[C@@H]65)C2)C1 [vincristine] + O=C(O)[C@@H]1[O][Sb](=[O])([O][Sb]2(=[O])[O][C@H]([C@H](O)CO)[C@H](O)[C@H](C(=O)O)[O]2)[O][C@H]([C@H](O)CO)[C@@H]1O [stibogluconate] (first compound 0.0001 µM, partner dose 2 µM)",295%,272%,78%,84.2%,94%,116%
"CC[C@]1(O)C[C@H]2CN(CCc3c([nH]c4ccccc34)[C@@](C(=O)OC)(c3cc4c(cc3OC)N(C=O)[C@H]3[C@@](O)(C(=O)OC)[C@H](OC(C)=O)[C@]5(CC)C=CCN6CC[C@]43[C@@H]65)C2)C1 [vincristine] + NCC(=O)Nc1ccc(-n2nc(C(F)(F)F)cc2-c2ccc3c(ccc4ccccc43)c2)cc1 [OSU03012] (first compound 0.0001 µM, partner dose 1 µM)",284%,7550%,97.3%,85.7%,87.9%,709%
"COc1cc([C@@H]2c3cc4c(cc3[C@@H](O[C@@H]3O[C@@H]5CO[C@@H](C)O[C@H]5[C@H](O)[C@H]3O)[C@H]3COC(=O)[C@H]23)OCO4)cc(OC)c1O [etoposide] + CCc1ccc(CCOc2ccc(CC3SC(=O)NC3=O)cc2)nc1 [pioglitazone] (first compound 0.02 µM, partner dose 2 µM)",119%,62.1%,95%,85.1%,110%,49.7%
"CC[C@]1(O)C[C@H]2CN(CCc3c([nH]c4ccccc34)[C@@](C(=O)OC)(c3cc4c(cc3OC)N(C=O)[C@H]3[C@@](O)(C(=O)OC)[C@H](OC(C)=O)[C@]5(CC)C=CCN6CC[C@]43[C@@H]65)C2)C1 [vincristine] + COc1ccc(Cl)c(Nc2nc3ccccc3nc2NS(=O)(=O)c2cccc(NC(=O)C(C)(C)N)c2)c1 [XL147] (first compound 0.0001 µM, partner dose 0.8 µM)",612%,149%,110%,92.1%,135%,152%
"COc1cc([C@@H]2c3cc4c(cc3[C@@H](O[C@@H]3O[C@@H]5CO[C@@H](C)O[C@H]5[C@H](O)[C@H]3O)[C@H]3COC(=O)[C@H]23)OCO4)cc(OC)c1O [etoposide] + Nc1nc(F)nc2c1ncn2[C@@H]1O[C@H](CO)[C@@H](O)[C@@H]1O [fludarabine] (first compound 0.02 µM, partner dose 0.2 µM)",185%,58.3%,109%,1260%,87.9%,98.6%
"CC[C@]1(O)C[C@H]2CN(CCc3c([nH]c4ccccc34)[C@@](C(=O)OC)(c3cc4c(cc3OC)N(C=O)[C@H]3[C@@](O)(C(=O)OC)[C@H](OC(C)=O)[C@]5(CC)C=CCN6CC[C@]43[C@@H]65)C2)C1 [vincristine] + C[C@]1(c2nc3c(C(N)=O)cccc3[nH]2)CCCN1 [Veliparib] (first compound 0.0001 µM, partner dose 1.4 µM)",1670%,175%,106%,127%,178%,246%
"O=C(/C=C/c1cccnc1)NCCCCC1CCN(C(=O)c2ccccc2)CC1 + C=CCNC1=C2C[C@@H](C)C[C@H](OC)[C@H](O)[C@@H](C)/C=C(\C)[C@H](OC(N)=O)[C@@H](OC)/C=C\C=C(/C)C(=O)NC(=CC1=O)C2=O [Tanespimycin] (first compound 0.01 µM, partner dose 0.002 µM)",167%,71.9%,103%,86.4%,110%,37%
"CCCCCCCCCCCCCCCCCCOP(=O)([O-])OC1CC[N+](C)(C)CC1 [Perifosine] + O=c1[nH]nc(Sc2ncc([N+](=O)[O-])s2)n1-c1ccc2c(c1)OCCO2 [BI78D3] (first compound 0.4 µM, partner dose 0.2 µM)",55.9%,314%,282%,74.3%,82.8%,62.1%
"N#CC[C@H](C1CCCC1)n1cc(-c2ncnc3[nH]ccc23)cn1 [ruxolitinib] + O=c1[nH]nc(Sc2ncc([N+](=O)[O-])s2)n1-c1ccc2c(c1)OCCO2 [BI78D3] (first compound 1 µM, partner dose 0.2 µM)",54.6%,35.9%,101%,36.1%,96%,68.5%

# Looked up above:
# Entry for Cc1cn(-c2cc(NC(=O)c3ccc(C)c(Nc4nccc(-c5cccnc5)n4)c3)cc(C(F)(F)F)c2)cn1 [nilotinib] + Cn1nnc2c(C(N)=O)ncn2c1=O [temozolomide] (first compound 0.2 µM, partner dose 2 µM) under cleaved PARP positive nuclei fraction (WM451Lu): 21.8%
# Entry for COc1cc([C@@H]2c3cc4c(cc3[C@@H](O[C@@H]3O[C@@H]5CO[C@@H](C)O[C@H]5[C@H](O)[C@H]3O)[C@H]3COC(=O)[C@H]23)OCO4)cc(OC)c1O [etoposide] + Nc1nc(F)nc2c1ncn2[C@@H]1O[C@H](CO)[C@@H](O)[C@@H]1O [fludarabine] (first compound 0.02 µM, partner dose 0.2 µM) under cleaved PARP positive nuclei fraction (WM1716): 58.3%

# — the supplement of paper PMC4604168 (melanoma cell lines)
